These are yes or no findings as the source states them, for the method shown. For some assays here: A result given as binding can be weak or reduced; the word gives no strength.
Legend:
rIgG.cεmx.migis (human) [1] = assay: ELISA, D5 at 1.25 to 20 µg/ml (FIG. 7C)
rIgG.cεmx (human) [2] = assay: ELISA of D5 at 1.25 to 20 µg/ml on IgG Fc.cεmx or IgG Fc.cεmx.migis
rIgG.cεmx.migis (human) [3] = assay: as above
rIgG.cεmx (human) [4] = assay: ELISA (FIG. 7C)
rIgG.cεmx.migis (human) [5] = assay: ELISA (FIG. 7C)

binding (rIgG.cεmx.migis (human) [1]): binds
binding (rIgG.cεmx (human) [2]): no binding (tested: 20 µg/ml)
binding (rIgG.cεmx.migis (human) [3]): binds
binding (rIgG.cεmx (human) [4]): no binding (tested: 1.25 to 20 µg/ml)
binding (rIgG.cεmx.migis (human) [5]): binds
B1: D5 antibody (antibody, V domains shown)
VH: EVQLLESGGGLVQPGGSLRLSCAASGFTFSKYHMVWVRQAPGKGLEWVSSIGPSGGNTYYADSVKGRFTISRDNSKNTLYLQMNSLRAEDTATYYCARALGATFDYWGQGTLVTVSS
VL: DIQMTQSPLSLPVTLGQPASISCKSSQSLVYRDGITYLSWFQQRPGQSPRRLIYKVSNRDSGVPDRFSGSGSDSNFTLKISSVEAEDVGLYFCMQGSHWPFTFGPGTKVDIKR
